The values that follow come from patent US6995249.

Series [1] has as its target Raf-1 RBD (GST-RBD) (UniProt P04049). In words: filter binding. As to conditions: Kd of micromolar order, no number in text; no inhibition of Ras binding at 12.5 uM; purified recombinant protein; protein details: GST fusion, expressed in E. coli; label: 32P.
The target is the same in series [2]. The series can be described thus: inhibition of the protein. As to conditions: purified recombinant protein, protein details: GST fusion, expressed in E. coli.
The mark [3] stands for this setting: dose-dependent inhibition of Ras binding to GST-RBD, 4 C, label: 5'-32P, dose not given here.

For some of these results: No signal at the amounts used counts as a negative. For some of these results: Weaker means in comparison with the reference protein, sequence or condition of that experiment.

For the sequence “GGGAGAUCAGAAUAAACGCUCAACUUGAGCCAAUUAAAAGAUUUACAACAAGAACAUGAACGUGACAGCGAUAAUAAUACGAUUCGACAUGAGGCCCCUGCAGGGCG [clone 21.11]”, in the series with Raf-1 RBD (GST-RBD) [1], the binding result was “binds more weakly”.

In the case of “GGGAGAUCAGAAUAAACGCUCAAGCGACAAGCAGCAGAUAAAGUUGAGCGCAACGCCGCUACAGAACCAAAUUAACAUGUAUGUUCGACAUGAGGCCCCUGCAGGGCG [clone 21.12]”, the “functional effect of the aptamer” value in the series with Raf-1 RBD (GST-RBD) [2] (no inhibition of Ras binding at 12.5 uM, label: 32P) is given as “not active”.

For the sequence “GGGAGUGGAGGAAUUCAUCGAGGCAUAUGUCGACUCCGUCUUCCUUCAAACCAGUUAUAAAUUGGUUUUAGCAUAUGCCUUAGCGACAGCAAGCUUCUGC [RNA aptamer SEQ ID NO:25]”, in the series with Raf-1 RBD (GST-RBD) [2] (setting [3]), the “functional effect of the aptamer” value is “active”.

Regarding “GGGAGUGGAGGAAUUCAUCGAGGCAUGACCUCCCGUGGCAGUAGGGGUAAAAAUUAUCUUCCUACACUUCUCAUGCCUUAGCGACAGCAAGCUUCUGC [RNA aptamer SEQ ID NO:26]”, the “functional effect of the aptamer” value in the series with Raf-1 RBD (GST-RBD) [2] (setting [3]) is reported as “active”.
